Experimental findings from the supplement of paper PMC6411743 are described below.

Chains of the proteins cited; added tags and fusions are not shown. Lines headed by an entry give the natural chain unless they say otherwise; changes in a name come on top.
UniProt P14406, whole entry: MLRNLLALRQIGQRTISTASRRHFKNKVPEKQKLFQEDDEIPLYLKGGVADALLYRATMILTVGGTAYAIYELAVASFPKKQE
UniProt P62256: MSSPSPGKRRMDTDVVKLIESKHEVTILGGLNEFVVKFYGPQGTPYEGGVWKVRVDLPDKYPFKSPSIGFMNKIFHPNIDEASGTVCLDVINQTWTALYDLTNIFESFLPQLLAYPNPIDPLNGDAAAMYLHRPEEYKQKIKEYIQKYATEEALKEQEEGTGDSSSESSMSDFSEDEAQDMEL
UniProt P07602: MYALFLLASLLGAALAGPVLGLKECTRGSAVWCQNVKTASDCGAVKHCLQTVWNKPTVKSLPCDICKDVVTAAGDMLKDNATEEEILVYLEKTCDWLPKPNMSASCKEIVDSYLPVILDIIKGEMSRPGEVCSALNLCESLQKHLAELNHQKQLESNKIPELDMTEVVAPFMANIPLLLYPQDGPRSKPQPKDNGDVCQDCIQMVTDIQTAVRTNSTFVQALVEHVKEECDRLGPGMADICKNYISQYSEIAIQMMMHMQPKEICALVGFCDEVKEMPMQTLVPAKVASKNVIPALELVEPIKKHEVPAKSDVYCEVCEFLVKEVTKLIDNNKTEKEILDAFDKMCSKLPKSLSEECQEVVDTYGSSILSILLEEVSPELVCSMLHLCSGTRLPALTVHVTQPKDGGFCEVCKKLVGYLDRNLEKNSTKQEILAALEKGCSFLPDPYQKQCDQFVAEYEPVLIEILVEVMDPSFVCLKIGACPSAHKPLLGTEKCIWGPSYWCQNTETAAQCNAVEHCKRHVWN
UniProt Q14BN4: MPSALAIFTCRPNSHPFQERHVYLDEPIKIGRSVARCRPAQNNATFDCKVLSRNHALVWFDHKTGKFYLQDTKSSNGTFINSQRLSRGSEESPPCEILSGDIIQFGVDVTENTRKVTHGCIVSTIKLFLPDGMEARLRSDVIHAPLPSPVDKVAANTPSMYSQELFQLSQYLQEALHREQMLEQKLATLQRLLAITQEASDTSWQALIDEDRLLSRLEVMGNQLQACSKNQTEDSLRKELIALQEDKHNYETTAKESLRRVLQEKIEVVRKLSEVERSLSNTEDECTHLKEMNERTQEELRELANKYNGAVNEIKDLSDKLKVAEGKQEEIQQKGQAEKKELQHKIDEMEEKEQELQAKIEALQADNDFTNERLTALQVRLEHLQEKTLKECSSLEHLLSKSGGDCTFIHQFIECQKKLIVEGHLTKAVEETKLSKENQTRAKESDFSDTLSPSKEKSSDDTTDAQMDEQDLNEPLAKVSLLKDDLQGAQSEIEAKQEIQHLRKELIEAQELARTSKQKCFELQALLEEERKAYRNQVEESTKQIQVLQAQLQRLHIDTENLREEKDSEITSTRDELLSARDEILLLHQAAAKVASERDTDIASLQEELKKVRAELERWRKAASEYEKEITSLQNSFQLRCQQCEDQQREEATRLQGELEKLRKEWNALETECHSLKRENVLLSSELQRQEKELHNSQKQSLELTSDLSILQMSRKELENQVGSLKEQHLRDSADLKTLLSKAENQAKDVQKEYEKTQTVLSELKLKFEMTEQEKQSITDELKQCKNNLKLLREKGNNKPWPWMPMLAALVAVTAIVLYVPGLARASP
UniProt Q9NR46: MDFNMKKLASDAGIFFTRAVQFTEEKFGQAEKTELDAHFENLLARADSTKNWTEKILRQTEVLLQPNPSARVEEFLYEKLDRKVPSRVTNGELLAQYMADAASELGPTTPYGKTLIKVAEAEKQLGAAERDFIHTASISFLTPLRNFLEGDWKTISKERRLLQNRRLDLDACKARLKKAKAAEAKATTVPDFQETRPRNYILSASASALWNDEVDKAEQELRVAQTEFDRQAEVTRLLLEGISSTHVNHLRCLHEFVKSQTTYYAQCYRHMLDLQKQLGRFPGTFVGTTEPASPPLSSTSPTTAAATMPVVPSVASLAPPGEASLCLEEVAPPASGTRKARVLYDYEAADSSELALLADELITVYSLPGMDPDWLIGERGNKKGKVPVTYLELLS
UniProt Q96RU3: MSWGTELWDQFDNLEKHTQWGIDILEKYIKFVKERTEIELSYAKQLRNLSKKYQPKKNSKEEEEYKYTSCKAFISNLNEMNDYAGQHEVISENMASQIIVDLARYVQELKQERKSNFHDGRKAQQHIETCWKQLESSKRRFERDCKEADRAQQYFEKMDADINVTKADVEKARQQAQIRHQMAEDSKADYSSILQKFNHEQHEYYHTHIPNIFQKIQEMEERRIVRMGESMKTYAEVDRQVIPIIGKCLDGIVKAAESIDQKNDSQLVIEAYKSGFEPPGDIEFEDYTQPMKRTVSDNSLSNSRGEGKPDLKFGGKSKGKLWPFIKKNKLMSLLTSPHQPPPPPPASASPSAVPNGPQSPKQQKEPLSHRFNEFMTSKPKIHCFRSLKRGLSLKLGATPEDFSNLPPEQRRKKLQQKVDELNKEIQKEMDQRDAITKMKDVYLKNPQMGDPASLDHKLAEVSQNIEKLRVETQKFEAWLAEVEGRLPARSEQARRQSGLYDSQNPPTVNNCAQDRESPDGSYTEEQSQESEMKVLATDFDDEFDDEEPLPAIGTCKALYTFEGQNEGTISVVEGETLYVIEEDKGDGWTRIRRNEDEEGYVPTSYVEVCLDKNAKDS
UniProt Q9BQ75: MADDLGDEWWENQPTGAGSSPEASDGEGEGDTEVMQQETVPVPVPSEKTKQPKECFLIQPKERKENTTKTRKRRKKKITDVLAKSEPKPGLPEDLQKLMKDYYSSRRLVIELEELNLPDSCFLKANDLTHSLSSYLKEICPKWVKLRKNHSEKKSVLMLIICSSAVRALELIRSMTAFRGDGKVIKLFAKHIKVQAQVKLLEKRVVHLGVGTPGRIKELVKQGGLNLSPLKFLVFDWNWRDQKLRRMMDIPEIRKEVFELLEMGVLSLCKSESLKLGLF
UniProt Q9BVC5: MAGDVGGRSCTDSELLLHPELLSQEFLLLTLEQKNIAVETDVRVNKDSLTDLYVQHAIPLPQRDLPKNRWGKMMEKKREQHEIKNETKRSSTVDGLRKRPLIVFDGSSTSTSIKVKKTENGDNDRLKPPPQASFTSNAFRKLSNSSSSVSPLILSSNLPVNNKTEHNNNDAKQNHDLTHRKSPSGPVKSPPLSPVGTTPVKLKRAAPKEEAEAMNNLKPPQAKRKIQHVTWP
UniProt P31943: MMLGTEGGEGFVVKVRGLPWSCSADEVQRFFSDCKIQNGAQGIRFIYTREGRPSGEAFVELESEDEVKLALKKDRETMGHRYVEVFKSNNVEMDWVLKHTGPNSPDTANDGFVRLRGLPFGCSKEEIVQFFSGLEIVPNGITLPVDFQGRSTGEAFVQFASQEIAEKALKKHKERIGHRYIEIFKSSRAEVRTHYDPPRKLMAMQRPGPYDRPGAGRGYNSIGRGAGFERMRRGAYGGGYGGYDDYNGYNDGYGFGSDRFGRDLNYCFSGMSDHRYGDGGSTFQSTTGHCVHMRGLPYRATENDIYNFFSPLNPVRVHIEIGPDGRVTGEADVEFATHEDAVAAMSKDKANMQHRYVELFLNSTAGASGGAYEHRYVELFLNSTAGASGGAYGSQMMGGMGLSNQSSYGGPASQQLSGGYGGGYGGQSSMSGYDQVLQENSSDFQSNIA
UniProt Q96DH6: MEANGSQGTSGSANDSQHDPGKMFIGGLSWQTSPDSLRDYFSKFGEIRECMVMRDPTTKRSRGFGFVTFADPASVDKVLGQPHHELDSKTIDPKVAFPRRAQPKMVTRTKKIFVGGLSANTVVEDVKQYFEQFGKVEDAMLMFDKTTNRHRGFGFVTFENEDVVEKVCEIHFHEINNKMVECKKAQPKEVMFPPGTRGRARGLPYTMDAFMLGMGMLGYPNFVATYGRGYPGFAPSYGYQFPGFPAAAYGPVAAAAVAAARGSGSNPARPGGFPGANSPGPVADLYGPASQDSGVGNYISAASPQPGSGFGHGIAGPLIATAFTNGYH
UniProt P46976: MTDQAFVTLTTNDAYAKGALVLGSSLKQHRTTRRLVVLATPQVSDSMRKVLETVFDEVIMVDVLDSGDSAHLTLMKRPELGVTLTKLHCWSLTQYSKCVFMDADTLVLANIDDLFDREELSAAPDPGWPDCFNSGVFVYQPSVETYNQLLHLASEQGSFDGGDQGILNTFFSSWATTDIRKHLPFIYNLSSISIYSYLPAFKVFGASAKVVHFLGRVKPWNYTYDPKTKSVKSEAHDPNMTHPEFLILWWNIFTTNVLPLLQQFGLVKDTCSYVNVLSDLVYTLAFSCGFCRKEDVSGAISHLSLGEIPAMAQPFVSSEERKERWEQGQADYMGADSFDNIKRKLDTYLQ
UniProt Q8TCN5: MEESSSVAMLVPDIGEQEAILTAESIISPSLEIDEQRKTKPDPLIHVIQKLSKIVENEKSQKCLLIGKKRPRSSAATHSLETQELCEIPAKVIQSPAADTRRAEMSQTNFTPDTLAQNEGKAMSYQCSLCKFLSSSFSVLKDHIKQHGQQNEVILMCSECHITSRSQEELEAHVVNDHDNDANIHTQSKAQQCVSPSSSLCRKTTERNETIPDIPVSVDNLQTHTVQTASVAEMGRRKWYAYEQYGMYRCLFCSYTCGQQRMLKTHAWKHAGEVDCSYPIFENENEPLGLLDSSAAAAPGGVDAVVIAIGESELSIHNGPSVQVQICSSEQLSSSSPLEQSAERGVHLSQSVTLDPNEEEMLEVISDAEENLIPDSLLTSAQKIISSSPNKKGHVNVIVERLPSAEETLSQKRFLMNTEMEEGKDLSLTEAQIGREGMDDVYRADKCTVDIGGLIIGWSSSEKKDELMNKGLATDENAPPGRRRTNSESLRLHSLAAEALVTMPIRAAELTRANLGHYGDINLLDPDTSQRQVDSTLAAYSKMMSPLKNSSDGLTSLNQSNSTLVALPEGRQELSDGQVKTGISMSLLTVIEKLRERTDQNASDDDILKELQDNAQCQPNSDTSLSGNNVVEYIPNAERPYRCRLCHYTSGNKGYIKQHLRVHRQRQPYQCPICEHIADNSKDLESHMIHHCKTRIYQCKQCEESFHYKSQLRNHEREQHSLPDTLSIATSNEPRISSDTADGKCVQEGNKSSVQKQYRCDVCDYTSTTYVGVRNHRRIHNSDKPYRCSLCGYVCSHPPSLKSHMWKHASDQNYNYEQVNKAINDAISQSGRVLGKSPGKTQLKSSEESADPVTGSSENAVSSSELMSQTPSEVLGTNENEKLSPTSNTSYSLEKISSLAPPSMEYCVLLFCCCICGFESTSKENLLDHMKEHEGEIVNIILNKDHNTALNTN
UniProt Q9UH65: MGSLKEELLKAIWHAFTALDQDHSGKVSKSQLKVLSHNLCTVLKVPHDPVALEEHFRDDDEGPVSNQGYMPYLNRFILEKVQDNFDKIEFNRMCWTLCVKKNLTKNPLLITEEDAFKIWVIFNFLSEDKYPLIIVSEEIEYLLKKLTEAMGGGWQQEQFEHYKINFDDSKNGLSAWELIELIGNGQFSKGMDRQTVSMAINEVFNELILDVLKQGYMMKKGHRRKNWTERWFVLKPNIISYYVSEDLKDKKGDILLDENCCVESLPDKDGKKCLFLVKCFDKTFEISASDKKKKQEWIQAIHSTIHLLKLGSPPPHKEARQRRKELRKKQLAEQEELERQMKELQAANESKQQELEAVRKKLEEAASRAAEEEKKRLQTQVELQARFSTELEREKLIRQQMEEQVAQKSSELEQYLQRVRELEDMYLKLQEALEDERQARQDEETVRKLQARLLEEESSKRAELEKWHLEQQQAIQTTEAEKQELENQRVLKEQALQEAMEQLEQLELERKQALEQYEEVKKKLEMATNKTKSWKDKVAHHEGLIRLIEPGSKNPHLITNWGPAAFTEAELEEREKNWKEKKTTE
UniProt P07910: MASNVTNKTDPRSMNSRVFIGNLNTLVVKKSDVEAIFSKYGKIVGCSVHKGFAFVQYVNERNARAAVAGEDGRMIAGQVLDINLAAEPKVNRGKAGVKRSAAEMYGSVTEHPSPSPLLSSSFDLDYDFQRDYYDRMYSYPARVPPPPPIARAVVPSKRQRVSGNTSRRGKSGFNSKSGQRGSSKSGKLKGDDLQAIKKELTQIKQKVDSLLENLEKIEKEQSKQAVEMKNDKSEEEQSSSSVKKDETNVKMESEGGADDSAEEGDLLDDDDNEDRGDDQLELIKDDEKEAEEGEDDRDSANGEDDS
UniProt Q86WP2: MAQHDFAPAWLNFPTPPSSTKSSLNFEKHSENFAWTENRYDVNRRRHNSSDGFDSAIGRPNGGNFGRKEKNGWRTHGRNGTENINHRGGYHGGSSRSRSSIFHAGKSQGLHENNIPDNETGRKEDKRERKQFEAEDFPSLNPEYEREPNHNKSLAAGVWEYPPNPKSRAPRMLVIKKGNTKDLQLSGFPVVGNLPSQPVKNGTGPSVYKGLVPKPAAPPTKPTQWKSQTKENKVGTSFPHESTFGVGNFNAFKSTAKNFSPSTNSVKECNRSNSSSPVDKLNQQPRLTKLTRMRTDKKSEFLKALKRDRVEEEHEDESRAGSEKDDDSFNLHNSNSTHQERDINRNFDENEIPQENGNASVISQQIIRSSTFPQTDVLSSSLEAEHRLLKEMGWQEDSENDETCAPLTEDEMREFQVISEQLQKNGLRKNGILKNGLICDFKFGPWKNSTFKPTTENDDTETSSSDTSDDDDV

Compound in the assay: Nc1nc2c(ncn2[C@@H]2O[C@H](COP(=O)(O)OP(=O)(O)OP(=O)(O)O)[C@@H](O)[C@H]2O)c(=O)[nH]1 [guanosine triphosphate]
Put plainly: NP40-soluble protein abundance relative to vehicle (solubility fold change) (ratio); higher = more soluble protein in presence of GTP. In outline:
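Data come from three independent experiments in which Dounce-homogenised Jurkat crude lysate was treated at eight concentrations from 0.1 to 10 mM. Treatment ran 10 min at room temperature and then 3 min at 37 °C, after which 0.8% NP40 and benzonase were added for 60 min at 4 °C before ultracentrifugation. The supernatant underwent TMT labelling and LC-MS/MS, and vsn-normalised intensities were expressed as fold change against the detergent-processed vehicle in each replicate.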

± gives the standard deviation of the averaged measurements. Some of the results follow.

On to “A6ND22 and related entries (UniProt Q9Y3D3)”, for which the NP40-soluble protein abundance is 0.998 ± 0.086 (concentration: 0.1mM); 1.03 ± 0.079 (concentration: 0.5mM); 1.13 ± 0.2 (concentration: 1mM); 1.25 ± 0.29 (concentration: 2mM); 1.23 ± 0.34 (concentration: 4mM); 1.2 ± 0.35 (concentration: 6mM). Also, the NP40-soluble protein abundance amounted to 1.04 ± 0.2 (concentration: 8mM) and 1.13 ± 0.3 (concentration: 10mM).

Regarding “D6RGV5 and related entries (UniProt P14406)”, the NP40-soluble protein abundance was determined as 0.975 ± 0.14 (concentration: 0.1mM); 0.909 ± 0.079 (concentration: 0.5mM); 1.14 ± 0.17 (concentration: 1mM); 1.14 ± 0.13 (concentration: 2mM); 1.19 ± 0.11 (concentration: 4mM); 1.13 ± 0.07 (concentration: 6mM). For the same target, the NP40-soluble protein abundance runs as follows: (concentration: 8mM) 1.02 ± 0.15; (concentration: 10mM) 1.21 ± 0.23.

Consider “C9J8Q9 and related entries (UniProt P62256)”, for which the NP40-soluble protein abundance runs as follows: (concentration: 0.1mM) 0.909 ± 0.052; (concentration: 0.5mM) 0.911 ± 0.096; (concentration: 1mM) 0.937 ± 0.055; (concentration: 2mM) 0.884 ± 0.061; (concentration: 4mM) 0.862 ± 0.11; (concentration: 6mM) 0.885 ± 0.087. Further, the NP40-soluble protein abundance by setting is: (concentration: 8mM) 0.901 ± 0.083; (concentration: 10mM) 0.854 ± 0.069.

For “C9JIZ6 and related entries (UniProt P07602)”, the NP40-soluble protein abundance was 0.848 ± 0.011 (concentration: 0.1mM); 0.81 ± 0.047 (concentration: 0.5mM); 0.97 ± 0.024 (concentration: 1mM); 0.932 ± 0.059 (concentration: 2mM); 0.919 ± 0.066 (concentration: 4mM); 0.933 ± 0.07 (concentration: 6mM). For the same target, the NP40-soluble protein abundance reads like this: (concentration: 8mM) 0.894 ± 0.095; (concentration: 10mM) 0.972 ± 0.011.

For the target “B7Z863 and related entries (UniProt Q14BN4)”, the NP40-soluble protein abundance came to 1.05 ± 0.022 (concentration: 0.1mM); 1.031 ± 0.0042 (concentration: 0.5mM); 1.05 ± 0.025 (concentration: 1mM); 1.02 ± 0.028 (concentration: 2mM); 1.04 ± 0.022 (concentration: 4mM); 1.03 ± 0.017 (concentration: 6mM). Besides, the NP40-soluble protein abundance (concentration: 8mM) is 1.1 ± 0.095 and the NP40-soluble protein abundance (concentration: 10mM) worked out at 1.05 ± 0.092.

As to “B7ZC38 and related entries (UniProt Q9NR46)”, the NP40-soluble protein abundance (concentration: 0.1mM) was determined as 0.905 ± 0.057; the NP40-soluble protein abundance (concentration: 0.5mM) came to 0.851 ± 0.036; the NP40-soluble protein abundance (concentration: 1mM) is 0.981 ± 0.069; the NP40-soluble protein abundance (concentration: 2mM) was 0.962 ± 0.06; the NP40-soluble protein abundance (concentration: 4mM) was found to be 0.968 ± 0.11; the NP40-soluble protein abundance (concentration: 6mM) turned out to be 0.968 ± 0.083. In addition, the NP40-soluble protein abundance by setting is: (concentration: 8mM) 0.898 ± 0.15; (concentration: 10mM) 0.936 ± 0.071.

“B7ZL14 and related entries (UniProt Q96RU3)”: the NP40-soluble protein abundance (concentration: 0.1mM) came to 0.939 ± 0.039; the NP40-soluble protein abundance (concentration: 0.5mM) was 0.96 ± 0.06; the NP40-soluble protein abundance (concentration: 1mM) came out at 0.958 ± 0.062; the NP40-soluble protein abundance (concentration: 2mM) was found to be 0.929 ± 0.09; the NP40-soluble protein abundance (concentration: 4mM) came out at 0.903 ± 0.074; the NP40-soluble protein abundance (concentration: 6mM) came out at 0.929 ± 0.073. Moreover, the NP40-soluble protein abundance turned out to be 0.926 ± 0.04 (concentration: 8mM) and 0.924 ± 0.081 (concentration: 10mM).

With “C9IY68 and related entries (UniProt Q9BQ75)”, the NP40-soluble protein abundance was 0.945 ± 0.058 (concentration: 0.1mM); 1.03 ± 0.083 (concentration: 0.5mM); 1.06 ± 0.071 (concentration: 1mM); 1.1 ± 0.058 (concentration: 2mM); 1.17 ± 0.069 (concentration: 4mM); 1.22 ± 0.094 (concentration: 6mM). Also, the NP40-soluble protein abundance was 1.23 ± 0.12 (concentration: 8mM) and 1.31 ± 0.04 (concentration: 10mM).

As for “C9J4K0 and related entries (UniProt Q9BVC5)”, the NP40-soluble protein abundance is, setting by setting: (concentration: 0.1mM) 0.976 ± 0.098; (concentration: 0.5mM) 0.926 ± 0.081; (concentration: 1mM) 1.01 ± 0.1; (concentration: 2mM) 1 ± 0.08; (concentration: 4mM) 1.09 ± 0.097; (concentration: 6mM) 1.04 ± 0.072. Further, the NP40-soluble protein abundance (concentration: 8mM) amounted to 1.12 ± 0.086 and the NP40-soluble protein abundance (concentration: 10mM) worked out at 1.08 ± 0.044.

For the target “D6RAM1 and related entries (UniProt P31943)”, the NP40-soluble protein abundance by setting is: (concentration: 0.1mM) 0.974 ± 0.023; (concentration: 0.5mM) 0.987 ± 0.012; (concentration: 1mM) 0.955 ± 0.014; (concentration: 2mM) 0.96 ± 0.018; (concentration: 4mM) 0.965 ± 0.024; (concentration: 6mM) 0.972 ± 0.019. The NP40-soluble protein abundance was determined as 0.951 ± 0.026 (concentration: 8mM) and 0.948 ± 0.035 (concentration: 10mM).

With “B4DHE8 and related entries (UniProt Q96DH6)”, the NP40-soluble protein abundance (concentration: 0.1mM) worked out at 0.908 ± 0.074; the NP40-soluble protein abundance (concentration: 0.5mM) amounted to 0.932 ± 0.063; the NP40-soluble protein abundance (concentration: 1mM) is 0.891 ± 0.064; the NP40-soluble protein abundance (concentration: 2mM) came to 0.882 ± 0.058; the NP40-soluble protein abundance (concentration: 4mM) came to 0.863 ± 0.072; the NP40-soluble protein abundance (concentration: 6mM) came to 0.847 ± 0.039. Besides, the NP40-soluble protein abundance reads like this: (concentration: 8mM) 0.823 ± 0.08; (concentration: 10mM) 0.832 ± 0.09.

For “D6RAN4 and related entries (UniProt P32969)”, the NP40-soluble protein abundance was determined as 0.965 ± 0.085 (concentration: 0.1mM); 1.01 ± 0.11 (concentration: 0.5mM); 1.05 ± 0.25 (concentration: 1mM); 0.993 ± 0.3 (concentration: 2mM); 1.02 ± 0.38 (concentration: 4mM); 0.898 ± 0.28 (concentration: 6mM). Further, the NP40-soluble protein abundance (concentration: 8mM) is 0.699 ± 0.2 and the NP40-soluble protein abundance (concentration: 10mM) came to 1.03 ± 0.32.

On to “C9JQ42 and related entries (UniProt P46976)”, for which the NP40-soluble protein abundance is, setting by setting: (concentration: 0.1mM) 0.913 ± 0.14; (concentration: 0.5mM) 0.9585 ± 0.0056; (concentration: 1mM) 0.99 ± 0.1; (concentration: 2mM) 1 ± 0.17; (concentration: 4mM) 0.993 ± 0.31; (concentration: 6mM) 0.927 ± 0.22. For the same target, the NP40-soluble protein abundance amounted to 0.917 ± 0.22 (concentration: 8mM) and 0.914 ± 0.27 (concentration: 10mM).

Take “B9EGE7 and related entries (UniProt Q8TCN5)”: the NP40-soluble protein abundance came out at 0.964 ± 0.013 (concentration: 0.1mM); 0.98 ± 0.032 (concentration: 0.5mM); 1.03 ± 0.015 (concentration: 1mM); 1.03 ± 0.023 (concentration: 2mM); 1.03 ± 0.02 (concentration: 4mM); 1.01 ± 0.028 (concentration: 6mM). Besides, the NP40-soluble protein abundance reads like this: (concentration: 8mM) 1 ± 0.034; (concentration: 10mM) 1.01 ± 0.053.

As to “E7EMB1 and related entries (UniProt Q9UH65)”, the NP40-soluble protein abundance runs as follows: (concentration: 0.1mM) 0.991 ± 0.088; (concentration: 0.5mM) 0.994 ± 0.089; (concentration: 1mM) 0.988 ± 0.12; (concentration: 2mM) 0.936 ± 0.15; (concentration: 4mM) 0.921 ± 0.15; (concentration: 6mM) 0.934 ± 0.16. Also, the NP40-soluble protein abundance amounted to 0.982 ± 0.084 (concentration: 8mM) and 0.922 ± 0.094 (concentration: 10mM).

On to “B2R5W2 and related entries (UniProt P07910)”, for which the NP40-soluble protein abundance (concentration: 0.1mM) was 0.9495 ± 0.002; the NP40-soluble protein abundance (concentration: 0.5mM) turned out to be 1.03 ± 0.042; the NP40-soluble protein abundance (concentration: 1mM) worked out at 1.12 ± 0.11; the NP40-soluble protein abundance (concentration: 2mM) is 1.09 ± 0.13; the NP40-soluble protein abundance (concentration: 4mM) was 1.04 ± 0.19; the NP40-soluble protein abundance (concentration: 6mM) turned out to be 1.04 ± 0.17. Also, the NP40-soluble protein abundance reads like this: (concentration: 8mM) 1.02 ± 0.23; (concentration: 10mM) 0.98 ± 0.22.

“C9JIK8 and related entries (UniProt Q9Y4P1)”: the NP40-soluble protein abundance (concentration: 0.1mM) was 1.11 ± 0.14; the NP40-soluble protein abundance (concentration: 0.5mM) was 1.12 ± 0.15; the NP40-soluble protein abundance (concentration: 1mM) amounted to 1.01 ± 0.081; the NP40-soluble protein abundance (concentration: 2mM) was 1.05 ± 0.21; the NP40-soluble protein abundance (concentration: 4mM) turned out to be 1.06 ± 0.18; the NP40-soluble protein abundance (concentration: 6mM) came out at 0.991 ± 0.12. For the same target, the NP40-soluble protein abundance amounted to 0.907 ± 0.12 (concentration: 8mM) and 0.89 ± 0.13 (concentration: 10mM).

As for “D4PHA4 and related entries (UniProt Q86WP2)”, the NP40-soluble protein abundance is 0.97 ± 0.075 (concentration: 0.1mM); 1.06 ± 0.12 (concentration: 0.5mM); 1.12 ± 0.11 (concentration: 1mM); 1.1 ± 0.09 (concentration: 2mM); 1.16 ± 0.15 (concentration: 4mM); 1.22 ± 0.16 (concentration: 6mM). The NP40-soluble protein abundance is 1.34 ± 0.19 (concentration: 8mM) and 1.36 ± 0.099 (concentration: 10mM).
